Test results: PMC4330389, “Domain organization within the nuclear export factor Mex67:Mtr2 generates an extended mRNA binding surface”
No constants are given. Whether binding was seen depends on the method and setting. Some results given as binding are weak or reduced against the parent protein; the word gives no strength.

Tests used:
[1] = biological target: T1, Mex67^NTF2L (residues 264–487) (S. cerevisiae) (UniProt Q99257); experiment: co-purification; Mex67 construct and Mtr2 co-expressed from pETDuet-1 in E. coli; Ni-NTA, TEV cleavage, heparin, Superdex 200 in 20 mM HEPES-NaOH pH 8.0, 200 mM NaCl, 4°C
T1 sequence: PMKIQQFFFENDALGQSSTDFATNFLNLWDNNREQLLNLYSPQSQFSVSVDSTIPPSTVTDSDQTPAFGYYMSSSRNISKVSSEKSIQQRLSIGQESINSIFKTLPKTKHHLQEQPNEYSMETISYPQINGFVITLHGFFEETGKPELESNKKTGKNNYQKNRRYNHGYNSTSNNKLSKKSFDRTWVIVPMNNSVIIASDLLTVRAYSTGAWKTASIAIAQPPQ

[2] = biological target: T2, Mex67 (residues 1–599, full length) (S. cerevisiae) (UniProt Q99257); experiment: as above
T2 sequence: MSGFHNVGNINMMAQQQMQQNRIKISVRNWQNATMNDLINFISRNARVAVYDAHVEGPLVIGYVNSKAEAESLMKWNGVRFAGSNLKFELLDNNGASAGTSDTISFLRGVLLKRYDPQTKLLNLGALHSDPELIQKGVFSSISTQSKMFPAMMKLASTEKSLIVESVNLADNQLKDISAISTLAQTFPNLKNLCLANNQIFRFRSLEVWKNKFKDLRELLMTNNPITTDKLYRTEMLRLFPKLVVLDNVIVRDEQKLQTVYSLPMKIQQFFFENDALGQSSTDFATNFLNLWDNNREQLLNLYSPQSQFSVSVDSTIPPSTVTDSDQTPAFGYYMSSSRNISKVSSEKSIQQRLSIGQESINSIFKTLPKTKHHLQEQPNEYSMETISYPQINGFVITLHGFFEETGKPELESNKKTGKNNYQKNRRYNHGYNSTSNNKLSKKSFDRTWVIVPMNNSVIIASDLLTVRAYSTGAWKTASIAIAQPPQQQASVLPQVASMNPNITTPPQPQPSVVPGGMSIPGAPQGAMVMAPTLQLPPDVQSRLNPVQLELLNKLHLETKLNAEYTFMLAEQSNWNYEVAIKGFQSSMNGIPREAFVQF

[3] = biological target: T3, Mex67^ΔUBA (residues 1–487) (S. cerevisiae) (UniProt Q99257); experiment: SAXS with on-line SEC; purified complexes on a Superdex 200 Increase 3.2/300 column on-line with SAXS, 20°C; profile and estimated Mw compared with models of the complex; both purified
T3 sequence: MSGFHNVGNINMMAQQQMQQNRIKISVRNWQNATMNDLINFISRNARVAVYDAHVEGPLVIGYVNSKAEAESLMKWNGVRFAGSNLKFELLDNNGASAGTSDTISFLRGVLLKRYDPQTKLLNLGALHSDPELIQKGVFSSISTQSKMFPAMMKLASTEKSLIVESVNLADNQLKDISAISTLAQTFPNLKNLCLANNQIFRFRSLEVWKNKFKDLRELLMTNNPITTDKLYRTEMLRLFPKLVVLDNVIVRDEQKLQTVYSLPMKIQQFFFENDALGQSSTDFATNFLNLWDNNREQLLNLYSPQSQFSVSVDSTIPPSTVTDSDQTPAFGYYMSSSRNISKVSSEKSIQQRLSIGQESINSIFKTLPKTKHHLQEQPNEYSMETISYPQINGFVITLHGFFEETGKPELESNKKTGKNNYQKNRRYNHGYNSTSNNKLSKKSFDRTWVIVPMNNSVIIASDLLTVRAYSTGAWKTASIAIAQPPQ

[4] = biological target: T4, Mex67^LRR-NTF2L (residues 101–487) (S. cerevisiae) (UniProt Q99257); experiment: as above
T4 sequence: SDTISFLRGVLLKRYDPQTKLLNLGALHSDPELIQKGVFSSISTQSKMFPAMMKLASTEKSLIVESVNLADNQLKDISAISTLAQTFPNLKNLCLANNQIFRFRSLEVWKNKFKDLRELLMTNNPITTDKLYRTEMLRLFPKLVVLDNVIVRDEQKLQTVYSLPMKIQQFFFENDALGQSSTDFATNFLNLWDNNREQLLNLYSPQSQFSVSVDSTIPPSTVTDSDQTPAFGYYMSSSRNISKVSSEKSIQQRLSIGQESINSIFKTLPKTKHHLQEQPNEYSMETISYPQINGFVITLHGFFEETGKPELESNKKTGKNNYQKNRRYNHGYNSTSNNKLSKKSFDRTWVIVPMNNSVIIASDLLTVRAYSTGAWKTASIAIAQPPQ

[5] = biological target: T3, Mex67^ΔUBA (residues 1–487) (S. cerevisiae); experiment: crystal structure; Mex67^ΔUBA:Mtr2 complex, sitting-drop vapor diffusion at 4°C, 10% PEG 8000, 0.01 M zinc acetate, 0.1 M Tris-HCl pH 8.0; 3.3 Å, P2_1, four copies in the asymmetric unit; both purified

Measured: binding

B1: Mtr2 (protein, UniProt P34232 1-184)
chain: MNTNSNTMVMNDANQAQITATFTKKILAHLDDPDSNKLAQFVQLFNPNNCRIIFNATPFAQATVFLQMWQNQVVQTQHALTGVDYHAIPGSGTLICNVNCKVRFDESGRDKMGQDATVPIQPNNTGNRNRPNDMNKPRPLWGPYFGISLQLIIDDRIFRNDFNGVISGFNYNMVYKPEDSLLKI
binds: all assays above
